Among all 53,000 sequences or so, about 3,700 (7%) were called active.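 How the source made its calls: active means gene knockdowns whose robust z-score for IL-1 alpha signal is at least 2 or at most -2, so actives lie on both sides; inactive means the rest.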 This is one part of the list.
assay: Components of the Cytosolic LPS Sensing Pathway: Gene Identification via Genome-wide siRNA Screen; conditions: RAW264.7 macrophages, IL-1a HTRF, actives lie on both sides, screened at 100 nM (by protocol), cells primed 5 h with Pam3CSK4 first;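 further: robust z of the log signal after scaling to non-targeting control siRNA wells of the plate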
Summary of the method: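 Read-out: IL-1a HTRF on supernatant, divided by plate negative-control median ×100, log-transformed and converted to robust z-score. Cells were RAW264.7 given 100 nM siRNA, Pam3CSK4-primed 5 hours, then LipidA-transfected 24 hour.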

Sequence	z-score
GGAAUUACUGGCCUGGGUATT against Nox3	inactive: 0.767
GGAGCUGUCUAAUCAUAAUTT against Clasp2	inactive: -0.109
GGAACUGGAACACAUGGUUTT against Dtd1	inactive: -0.641
GCAACAGUUGGUCUAAAAUTT against Psma1	active: -2.11
GGAGUUACGUAGAACUACCTT against Adam25	inactive: 0.543
GGAUGUCAGAGAUAUAUUUTT against Fbh1	inactive: -0.61
GCUCGAUCCCUCUUUCAUCTT against Mpst	inactive: -1.25
CCCUAGAAUUGCUACAGUCTT against Tcea1	inactive: 1.76
CGGAAGUGUCAAAACCAGATT against Zbtb49	inactive: -0.642
GGCUGUGAGAUAGAUCUAATT against Arhgef40	active: 2.07
GGUGGCUUGAGCAGAAUCUTT against Cngb1	inactive: -0.286
GGUUCUUGGUUUACAUAAGTT against Slc39a12	inactive: -1.23
GGCCUCUUUUCUGCUGCUUTT against Krt12	inactive: -0.427
GGUAGAUAACCUGAUUUAUTT against Slc7a6	active: 2.22
GGUGAGGAGCUGGAUAACATT against Smc4	inactive: 0.246
GGACAGGACAGCUUUGCACTT against Poteg	inactive: 0.205
GCAAUUACCAGUAUGCUACTT against Tbx19	inactive: 0.914
GCUACUCUACUGAACAGAATT against Olfr472	inactive: 1.16
GGCUUAAUUGCUAGCCAAGTT against Slc7a13	inactive: 0.849
GGAUAUAUACCUAUUCUGATT against Utp18	inactive: -0.046
GCAGUUCGUAGUAUUUGAATT against B4galt1	inactive: -0.646
GGUGACAACUGACCUCAACTT against Oog4	inactive: -0.152
GGCUACGCAAACAGUUUGGTT against Actn1	inactive: 1.82
CCAGAUCAGCAAUAUCAAATT against Lasp1	inactive: 1.69
CCUUCUGUUAGCCAAUAUATT against Tnmd	inactive: 0.707
GGUGUUGGUUGAGAACUUCTT against Tbxas1	inactive: -0.551
GGGCUUCUUUGACCUCAUCTT against Kdelr1	active: -2.71
GGUACUUUACACUGAACAATT against Serpinb13	active: 2.91
GGGAGUAUUACCUCCUUCATT against Igbp1b	inactive: 0.00303
GGAACAAAUGGACGAUCUGTT against Eif2d	inactive: 0.205

Shown comma-delimited: entries from further up.
Sequence,z-score
GCUCGAUCCCUCUUUCAUCTT against Mpst,inactive: -1.25
GCAAUUACCAGUAUGCUACTT against Tbx19,inactive: 0.914

Source: PubChem BioAssay AID1508600 (Functional Genomics Laboratory (NCATS/FGL), 2020)
